This is an account of results in publication doi:10.1101/2025.08.05.25330579.

A weaker result is weaker than the reference pair of the same experiment. Where a protein sequence is shown, tags need not be part of it.

In this series the target is T1, RBM10 RRM2 R332H (UniProt P98175).
T1 sequence (looked up): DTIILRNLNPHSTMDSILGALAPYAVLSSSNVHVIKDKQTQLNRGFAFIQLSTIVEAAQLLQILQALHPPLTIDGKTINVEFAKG
As to the kind of experiment: ITC and NMR. As to conditions: recombinant protein; residues 300-384.

As for “UUGUCUGCUCCC [NUMB exon 12-derived 12mer RNA]”, the binding result was “binds more weakly”.
